Data as given in PubChem BioAssay AID652243 (Drosophila RNAi Screening Center, 2013).

- Test: 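Fly regulators of androgen-dependent reporter output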 (primary screen)
- Cell system: Drosophila S2R+ cells
- Reagents: long dsRNA against Drosophila genes
- Duration: 72 h (48 h, then 24 h hormone)
- Challenge: synthetic androgen R1881 at 10 nM for 24 h
- Detection: 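Per-well raw luminescence of the androgen-driven firefly reporter and of the Renilla control, two replicates each, without normalisation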
- Direction: firefly reporter light: higher = more light from androgen-responsive reporter; Renilla control light: higher = more constitutive control signal (cell number, transfection)
- Rule for the call: 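Across duplicate plates, a knock-down whose log firefly/Renilla ratio shifted a set fold down or up from the GFP/LacZ control mean was a hit; the downward cut appears as both 1.5 and 3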
- Meaning of the calls: active = hit: reporter lowered or raised; inactive = no hit
The deposit covers about 24,000 reagents; below is a random part of those with a known target gene and a result. Over the whole deposit, 246 (1%) are marked active. 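Plates not normalised; calls are printed but the firefly/Renilla ratio behind them is not deposited; fold cut for lowering reported inconsistently.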 Raw values are not corrected between plates. Unmarked entries are inactive. The numbers tell different reagents against one gene apart. The record does not give: the amount of reagent.

{"predicted target":"ZIPIC","dsRNA no.":1,"firefly reporter light, replicate 1":1.70e5,"firefly reporter light, replicate 2":1.37e5,"Renilla control light, replicate 1":9.83e5,"Renilla control light, replicate 2":5.59e5}
{"predicted target":"CG11828","dsRNA no.":1,"firefly reporter light, replicate 1":2.27e5,"firefly reporter light, replicate 2":1.99e5,"Renilla control light, replicate 1":2.87e6,"Renilla control light, replicate 2":3.41e6}
{"predicted target":"CG11828","dsRNA no.":2,"firefly reporter light, replicate 1":4.59e5,"firefly reporter light, replicate 2":6.22e5,"Renilla control light, replicate 1":2.27e6,"Renilla control light, replicate 2":1.86e6}
{"predicted target":"CG11828","dsRNA no.":3,"firefly reporter light, replicate 1":3.52e5,"firefly reporter light, replicate 2":2.68e5,"Renilla control light, replicate 1":9.07e5,"Renilla control light, replicate 2":8.20e5}
{"predicted target":"CG3552","dsRNA no.":1,"firefly reporter light, replicate 1":1.44e5,"firefly reporter light, replicate 2":1.48e5,"Renilla control light, replicate 1":2.07e6,"Renilla control light, replicate 2":1.87e6}

Targets above whose target name starts with C or c:
{"predicted target":"CG11828","dsRNA no.":1,"firefly reporter light, replicate 1":2.27e5,"firefly reporter light, replicate 2":1.99e5,"Renilla control light, replicate 1":2.87e6,"Renilla control light, replicate 2":3.41e6}
{"predicted target":"CG11828","dsRNA no.":2,"firefly reporter light, replicate 1":4.59e5,"firefly reporter light, replicate 2":6.22e5,"Renilla control light, replicate 1":2.27e6,"Renilla control light, replicate 2":1.86e6}
{"predicted target":"CG11828","dsRNA no.":3,"firefly reporter light, replicate 1":3.52e5,"firefly reporter light, replicate 2":2.68e5,"Renilla control light, replicate 1":9.07e5,"Renilla control light, replicate 2":8.20e5}
{"predicted target":"CG3552","dsRNA no.":1,"firefly reporter light, replicate 1":1.44e5,"firefly reporter light, replicate 2":1.48e5,"Renilla control light, replicate 1":2.07e6,"Renilla control light, replicate 2":1.87e6}

Additional reagents follow:
{"predicted target":"aru","dsRNA no.":1,"firefly reporter light, replicate 1":1.23e5,"firefly reporter light, replicate 2":1.32e5,"Renilla control light, replicate 1":1.12e6,"Renilla control light, replicate 2":1.35e6}
{"predicted target":"aru","dsRNA no.":2,"firefly reporter light, replicate 1":8.86e5,"firefly reporter light, replicate 2":8.54e5,"Renilla control light, replicate 1":3.97e5,"Renilla control light, replicate 2":4.81e5}
{"predicted target":"CtsF","dsRNA no.":1,"firefly reporter light, replicate 1":92820,"firefly reporter light, replicate 2":93136,"Renilla control light, replicate 1":2.09e5,"Renilla control light, replicate 2":2.01e5}
{"predicted target":"CtsF","dsRNA no.":2,"firefly reporter light, replicate 1":19661,"firefly reporter light, replicate 2":22160,"Renilla control light, replicate 1":2.64e5,"Renilla control light, replicate 2":2.65e5}
{"predicted target":"CtsF","dsRNA no.":3,"firefly reporter light, replicate 1":87441,"firefly reporter light, replicate 2":1.00e5,"Renilla control light, replicate 1":1.69e6,"Renilla control light, replicate 2":1.79e6}
{"predicted target":"rump","dsRNA no.":1,"firefly reporter light, replicate 1":31840,"firefly reporter light, replicate 2":85605,"Renilla control light, replicate 1":3.51e5,"Renilla control light, replicate 2":8.34e5}
{"predicted target":"Exn","dsRNA no.":1,"firefly reporter light, replicate 1":22438,"firefly reporter light, replicate 2":18295,"Renilla control light, replicate 1":2.72e5,"Renilla control light, replicate 2":2.45e5}
{"predicted target":"Exn","dsRNA no.":2,"firefly reporter light, replicate 1":1.93e5,"firefly reporter light, replicate 2":1.71e5,"Renilla control light, replicate 1":1.74e6,"Renilla control light, replicate 2":1.46e6}
{"predicted target":"Exn","dsRNA no.":3,"firefly reporter light, replicate 1":7.64e5,"firefly reporter light, replicate 2":7.07e5,"Renilla control light, replicate 1":9.86e5,"Renilla control light, replicate 2":8.60e5}
{"predicted target":"Exn","dsRNA no.":4,"firefly reporter light, replicate 1":7.94e5,"firefly reporter light, replicate 2":8.90e5,"Renilla control light, replicate 1":1.02e6,"Renilla control light, replicate 2":1.09e6}
